Source: PubChem BioAssay AID1259354 (Paczesny and Yang Labs, IUPUI and University of Michigan, 2018)
Out of some 78,000 compounds screened, about 1,800 (2.3%) were called active. Inconclusive results, whose numbers are uncertain, are shown with a selection of clear calls. Cut-off read from the data, not from the text of the source: active = inhibition above about 30%; inconclusive = mostly about 10% to 28%; inactive = weaker than that.

Sequences of proteins named here, by UniProt entry; tags and fusion partners are left off. A change or cut given only in a name is not applied to a line headed by its entry.
UniProt Q01638: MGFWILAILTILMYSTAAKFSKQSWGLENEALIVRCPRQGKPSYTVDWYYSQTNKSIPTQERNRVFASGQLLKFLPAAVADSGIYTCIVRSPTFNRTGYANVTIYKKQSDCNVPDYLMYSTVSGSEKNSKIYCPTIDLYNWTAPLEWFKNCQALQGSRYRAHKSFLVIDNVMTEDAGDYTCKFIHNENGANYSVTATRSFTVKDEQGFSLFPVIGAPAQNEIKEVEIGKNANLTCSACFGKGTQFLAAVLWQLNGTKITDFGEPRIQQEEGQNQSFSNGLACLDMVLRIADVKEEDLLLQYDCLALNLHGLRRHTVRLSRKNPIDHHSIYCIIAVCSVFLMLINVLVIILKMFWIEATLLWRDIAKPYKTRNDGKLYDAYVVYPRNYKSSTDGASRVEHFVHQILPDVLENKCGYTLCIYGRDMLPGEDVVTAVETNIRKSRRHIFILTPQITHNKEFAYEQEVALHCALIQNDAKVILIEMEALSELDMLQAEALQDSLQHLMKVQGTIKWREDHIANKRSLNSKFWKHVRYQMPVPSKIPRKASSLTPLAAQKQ

The compounds below were run against Interleukin-1 receptor-like 1 (Homo sapiens) (UniProt Q01638) (assay: blocks human ST2 binding to IL-33, primary screen, biochemical, AlphaLISA (AID 1259354)). Conditions: AlphaLISA ST2-Fc/biotin-IL-33 interaction, 1 h; at 17 µM, hits give high values.
With `COc1ccc(OCc2nc(C#N)c(NCc3ccc(F)cc3)o2)cc1` the inhibition was inconclusive: 16%. In the case of `C[C@@H]1C(=O)O[C@H]2[C@H]1CC[C@@]1(C)Cc3sc(Nc4ccccc4)nc3[C@@H](C)[C@H]21`, the inhibition is reported as inconclusive: 13%. In the case of `Cn1c(=O)c2c(nc(NCc3ccco3)n2Cc2c(F)cccc2Cl)n(C)c1=O`, the inhibition is reported as “inactive”. `O=C(NCC1(c2cccc(F)c2)CCOCC1)C1CC2(CCNCC2)CN1` (configuration not stated) was tested, and the inhibition was “inactive”. `CC1(C)CC(=O)C(C2(O)C(=O)Nc3ccccc32)CO1` (configuration not stated) was tested, and the inhibition was inconclusive: 10%. `COc1ccc(NC(=O)c2cnn3ccccc23)c(NC(=O)C(C)C)c1` was tested, and the inhibition was inconclusive: 12%. With `CN(C)C(=NS(=O)(=O)c1ccccc1)c1ccc(Cl)cc1` the inhibition was inconclusive: 12%. With `O=S(=O)(NCCN1CCN(c2ccccc2)CC1)c1cccc2cccnc12` the inhibition was inconclusive: 21%. With `O=c1oc2ccccc2c(O)c1C=Nc1cccc([N+](=O)[O-])c1` the inhibition was “inactive”. With `CSc1nc(SC)c2c3c([nH]c2n1)CCCC3` the inhibition was inconclusive: 12%. In the case of `CC(=O)Nc1ccc(C(=O)NC[C@@H]2C=C(C)[C@H](CC(=O)N(C)Cc3cccnc3)C[C@H]2C(C)C)cc1`, the inhibition is reported as inconclusive: 13%. `Cc1ccc2c(c1)c(C(=O)NCCC1CN(C)CCO1)nn2C` (configuration not stated) was tested, and the inhibition was inconclusive: 12%. In the case of `Cc1ccc(NC(=O)c2cccc(Cl)c2)c(Br)c1`, the inhibition is reported as “inactive”. With `Cc1ccc(C)c(NC(=O)C2CCN(C(=O)c3cccs3)CC2)c1` the inhibition was inconclusive: 12%. In the case of `CCC1=NN(C(=O)c2ccc(Br)cc2)C(O)(c2ccc(OC)cc2)C1` (configuration not stated), the inhibition is reported as inconclusive: 20%. In the case of `CCCc1oncc1C(=O)NC1CC(=O)N(CCc2ccc(F)cc2)C1` (configuration not stated), the inhibition is reported as inconclusive: 23%. With `CC(=O)NCC1CCCN(Cc2cccc(Cn3cccn3)c2)C1` (configuration not stated) the inhibition was inconclusive: 15%. With `COc1cc(NC(=S)N[C@H]2CO[C@H]3[C@@H]2OC[C@H]3OC(=O)Nc2cccc3ccccc23)cc(OC)c1` the inhibition was inconclusive: 14%. With `CCc1cc(C(=O)N2CCc3c(cc(-c4ccccc4Cl)c(=O)n3Cc3ccncc3)C2)no1` the inhibition was inconclusive: 18%. For `COc1ccc(-n2nc3c(c2NC(=O)c2cccs2)CS(=O)C3)cc1` (configuration not stated), the inhibition was “inactive”. In the case of `O=C(c1ccccc1)c1ccc(/C=C/c2ccccn2)cc1`, the inhibition is reported as active: 55%. In the case of `O=C(CCCn1c(=O)[nH]c2ccsc2c1=O)NCc1ccc(F)cc1`, the inhibition is reported as inconclusive: 10%. With `COc1ccc(/C=C2\SC(=O)N(c3cccc(O)c3)C2=O)cc1` the inhibition was inconclusive: 11%. With `CC(C)CCCC1CN(C(=O)c2cc3ccccc3[nH]c2=O)CCO1` (configuration not stated) the inhibition was inconclusive: 16%. In the case of `O=C(O)c1ccccc1C1CCN(C(=O)CCc2cccnc2)C1` (configuration not stated), the inhibition is reported as inconclusive: 22%. For `O=c1[nH]c2cc(C(F)(F)F)ccc2n1-c1cc(C(F)(F)F)ccc1O`, the inhibition was inconclusive: 28%. For `COc1ccc(C(=O)N2CC(=O)N(Cc3ccccc3)CC(OCc3ccccn3)C2)c(OC)n1` (configuration not stated), the inhibition was inconclusive: 28%. With `CSc1nnc2c(n1)OC(c1ccc(N(C)C)cc1)N(C(C)=O)c1ccccc1-2` (configuration not stated) the inhibition was inconclusive: 23%. In the case of `NC(=O)CO[C@@H]1CO[C@H]2[C@@H]1OC[C@@H]2NC(=O)c1ccc(C(F)(F)F)cc1`, the inhibition is reported as inconclusive: 16%. `Cc1ccc(-c2ccc(/C=C3/NC(=O)NC3=O)o2)cc1[N+](=O)[O-]` was tested, and the inhibition was active: 41%. `O=C1c2ccccc2C(=O)N1c1cccc(-c2csc(=Nc3ccccc3)n2CCO)c1` was tested, and the inhibition was active: 48%. In the case of `COC(=O)CN1C(=O)c2cccc3cccc(c23)C1=O`, the inhibition is reported as “inactive”. `C=CCC(CC=C)(NS(=O)(=O)c1ccc(NC(C)=O)cc1)c1ccccc1` was tested, and the inhibition was “inactive”. In the case of `CN(C)c1ccc(C=Nc2cnn(C)c2C(N)=O)cc1`, the inhibition is reported as inconclusive: 25%. `N#CCOc1nc(N2CCCCC2)nc(N2CCCCC2)n1` was tested, and the inhibition was “inactive”. `COc1cc(C)c(-c2n[nH]c(C)c2Oc2ccccc2)c(O)c1` was tested, and the inhibition was inconclusive: 25%. `CN(Cc1ccc2nsnc2c1)Cc1cnn2cccnc12` was tested, and the inhibition was inconclusive: 18%. In the case of `CN(C(=O)CSc1c2c(nc3ccccc13)CCC2)C1CCCCC1`, the inhibition is reported as inconclusive: 18%. `O=C(Nc1ccc([N+](=O)[O-])cc1[N+](=O)[O-])c1cc2ccccc2oc1=O` was tested, and the inhibition was inconclusive: 11%. `COc1cc(C2C(C(=O)OC3CCCCC3)=C(C)Nc3ncnn32)cc(OC)c1OC` (configuration not stated) was tested, and the inhibition was “inactive”. `CC(C)C(C(=O)NCc1cccnc1N(C)C)c1ccccc1` (configuration not stated) was tested, and the inhibition was inconclusive: 18%. With `COc1ccc2cc(-c3[nH]ncc3CN(C)Cc3ccon3)ccc2c1` the inhibition was “inactive”. With `O=C(c1ccc([N+](=O)[O-])o1)n1cnc2ccccc21` the inhibition was inconclusive: 12%. For `O=C(NCCCO)c1ccc(CSc2nc3ccccc3c(=O)[nH]2)cc1`, the inhibition was inconclusive: 14%. In the case of `O=C(Nc1cccc(-c2nc3ncccc3o2)c1)c1ccc(-c2ccccc2)cc1`, the inhibition is reported as inconclusive: 20%. `COc1ccccc1-c1ccc(N2CCC(O)(c3cccnc3)CC2)nn1` was tested, and the inhibition was inconclusive: 10%. `COc1ccc(OC)c(NC(=O)c2cc3c(=O)n4cccc(C)c4nc3n2C)c1` was tested, and the inhibition was inconclusive: 22%. With `CC1=C[C@@H](CNC(=O)c2ccccc2)[C@H](C(C)C)C[C@H]1CC(=O)O` the inhibition was “inactive”. With `CC1CCN(c2nc(-c3ccccc3)c3c(N)[nH]nc3n2)CC1` the inhibition was “inactive”. For `CCOc1ccccc1/C=C(\C#N)c1nc(-c2ccc([N+](=O)[O-])cc2)cs1`, the inhibition was “inactive”. In the case of `O=C(CSc1nc2ccccc2o1)Nc1ccccc1Cl`, the inhibition is reported as inconclusive: 10%. `Oc1oc(-c2ccccc2F)nc1C=Nc1ccc(Br)cc1` was tested, and the inhibition was inconclusive: 16%. `COc1cccc(NC(=O)N[C@H]2[C@H](O)[C@@H](N3CCN(c4ccccc4)CC3)[C@@H]3OC[C@H]2O3)c1` was tested, and the inhibition was inconclusive: 14%. With `O=C(Nc1ccc(O)c(-c2nc3ccccc3s2)c1)c1cc(=O)c2ccccc2o1` the inhibition was inconclusive: 23%. With `CCc1[nH]c2c(CNC(=O)C(=O)c3ccco3)cc(C)cc2c1C` the inhibition was inconclusive: 13%. `CCOC(=O)C1CCCN(C(=O)c2cn(C)c(=O)c3cc(OC)c(OC)cc23)C1` (configuration not stated) was tested, and the inhibition was active: 35%. In the case of `O=C(CSCc1ccc(Cl)cc1Cl)Nc1c[nH]c(=O)[nH]c1=O`, the inhibition is reported as inconclusive: 29%. For `c1cnc2c(c1)Nc1nc3nonc3nc1N2`, the inhibition was inconclusive: 18%. For `CN1C[C@@H](NC(=O)Nc2ccccc2)C[C@H]1c1nc(-c2cccnc2)no1`, the inhibition was inconclusive: 10%. In the case of `O=C(COc1ccccc1)Nc1c(-c2cccs2)nc2ccccn12`, the inhibition is reported as “inactive”. `CCOc1ccccc1CNC(=O)CN1C(=O)C(CC)=C(c2ccc(OC)cc2)S1(=O)=O` was tested, and the inhibition was “inactive”. `COc1ccc(N2CCCS2(=O)=O)cc1NC(=O)COc1ccc(F)cc1` was tested, and the inhibition was “inactive”. With `O=C(NCc1cccnc1)c1cccc(OC2CCN(C(=O)C3CC=CCC3)CC2)c1` (configuration not stated) the inhibition was inconclusive: 12%. With `O=C(Nc1ccc(-c2ccc([N+](=O)[O-])cc2)cc1)c1ccccc1F` the inhibition was inconclusive: 12%. In the case of `CSc1cccc(NC(=O)c2nnn(Cc3cccc(F)c3)c2N)c1`, the inhibition is reported as “inactive”. `Cc1ccc(N2CCCS2(=O)=O)cc1NC(=O)c1ccc(C(F)(F)F)cc1` was tested, and the inhibition was inconclusive: 10%. For `Cc1c(Cl)cccc1NS(=O)(=O)c1cccc2nsnc12`, the inhibition was inconclusive: 16%. In the case of `CCCSc1nnc2c(n1)OC(c1ccccc1O)Nc1ccccc1-2` (configuration not stated), the inhibition is reported as “inactive”. With `O=C(Nc1scc(-c2ccc(F)cc2)c1C(=O)O)c1ccco1` the inhibition was inconclusive: 13%. `CN(Cc1ccccc1)C(=O)C[C@@H]1CCNC[C@@H]1Cc1cc(-c2ccccc2)on1` was tested, and the inhibition was inconclusive: 10%. `Cc1c(Cl)cccc1N1C(=O)CSC1c1ccc([N+](=O)[O-])cc1` (configuration not stated) was tested, and the inhibition was “inactive”. For `CC1CC(=O)c2c(cc3c(-c4c(O)cc(O)c5c(O)c6c(cc45)OC(C)CC6=O)c(O)cc(O)c3c2O)O1` (configuration not stated), the inhibition was inconclusive: 15%. `Cc1ccc2c(c1)c(C(=O)N1CCC(O)(CN(C)C)C1)nn2C` (configuration not stated) was tested, and the inhibition was inconclusive: 13%. With `CN(CC1CCCCO1)C(=O)CCn1c(=O)[nH]c2ccccc21` (configuration not stated) the inhibition was inconclusive: 12%. For `CC(C)c1ccc(CN2CCN(c3ccc([N+](=O)[O-])cc3)CC2)cc1`, the inhibition was inconclusive: 16%. For `O=C(Nc1cccc(C(F)(F)F)c1)C1COc2ccccc2O1` (configuration not stated), the inhibition was inconclusive: 29%. In the case of `CCCn1ncc(-c2ccnc(NC3CC(C)(C)NC(C)(C)C3)n2)c1C`, the inhibition is reported as inconclusive: 12%. With `COc1ccc(C(=O)N2CCC3(CCCN(Cc4cccnc4)C3=O)C2)o1` (configuration not stated) the inhibition was inconclusive: 16%. `Cc1ccn2cc(-c3ccc(F)cc3)cc2c1` was tested, and the inhibition was inconclusive: 21%. With `NC(=O)CNC(=O)C1=C[C@@H](NC(=O)c2cccs2)[C@@H](O)[C@H](O)C1` the inhibition was “inactive”. In the case of `CC(C)Cn1c(NCCCO)nc2c1c(=O)[nH]c(=O)n2C`, the inhibition is reported as “inactive”. For `c1ccc2c(c1)ccn2CCCNC1CCCNC1` (configuration not stated), the inhibition was inconclusive: 25%. For `CCc1nn(C)c(Cl)c1CN1CCN(C)C(C(=O)O)C1` (configuration not stated), the inhibition was “inactive”. With `O=C(C[C@@H]1O[C@H](CNC(=O)c2ccco2)[C@@H](O)[C@H]1O)NCc1ccc(F)cc1` the inhibition was inconclusive: 13%. `OCCC1CN(Cc2cccc3cnccc23)CCN1C1CCCCC1` (configuration not stated) was tested, and the inhibition was “inactive”. With `O=c1cc(-c2ccccc2)[nH]c2nc(Cl)ccc12` the inhibition was inconclusive: 21%. In the case of `CC(C(=O)N1CCN(c2ccccc2)CC1)N(c1ccccc1)S(C)(=O)=O` (configuration not stated), the inhibition is reported as inconclusive: 15%. With `COc1ccc(C2=NN(C(=O)c3cccs3)C(c3ccccc3Cl)C2)cc1OC` (configuration not stated) the inhibition was inconclusive: 25%. In the case of `COc1cc2oc(-c3ccccc3)cc(=O)c2c(O)c1OC`, the inhibition is reported as “inactive”. `Cc1cccc2oc(-c3cc(N=Cc4cccc([N+](=O)[O-])c4)ccc3O)nc12` was tested, and the inhibition was inconclusive: 21%. `Cc1oc(-c2cccc(Cl)c2)nc1CN1CCC(N(C)C)CC1` was tested, and the inhibition was inconclusive: 16%. With `Oc1oc(-c2ccc(Cl)cc2)nc1C=Nc1ccc(Cl)cn1` the inhibition was inconclusive: 29%.
